# Source: article PMC6978316, “Development of chimeric peptides to facilitate the neutralisation of lipopolysaccharides during bactericidal targeting of multidrug-resistant Escherichia coli” (Communications Biology, 2020)
# Where a SMILES comes first, the peptide text is derived from it. Bridges are numbered along the chain shown (N, C = ends).
# Test system: E. coli 0111:B4 LPS
# Test: CD spectra of peptides with or without LPS
# Set-up: species or system Escherichia coli
# Details: 10 mM Tris buffer, E. coli LPS 0.2 mg per ml
Molecule,decrease of antiparallel structure after binding to LPS (CD),increase of helices after binding to LPS (CD),increase of random coils after binding to LPS (CD)
"CC(C)[C@@H]1NC(=O)CNC(=O)[C@H](CC(N)=O)NC(=O)[C@H](CCCNC(=N)N)NC(=O)[C@H](Cc2ccc(O)cc2)NC(=O)[C@H](C(C)C)NC(=O)[C@@H](NC(=O)[C@@H](NC(=O)[C@H](CC(N)=O)NC(=O)[C@H](Cc2c[nH]c3ccccc23)NC(=O)[C@H](C)NC(=O)[C@H](Cc2ccccc2)NC(=O)CN)C(C)C)CSSC[C@@H](C(=O)N[C@@H](Cc2c[nH]cn2)C(=O)N[C@@H](CCCNC(=N)N)C(=O)N[C@@H](CCCNC(=N)N)C(=O)N[C@@H](C)C(=O)N[C@@H](CC(N)=O)C(=O)O)NC(=O)[C@H](C(C)C)NC(=O)[C@H](CCCNC(=N)N)NC1=O [N6, reference compound] (H-GFAWNVCVYRNGVRVCHRRAN-OH; disulfide 7-16; N-terminus and C-terminus assumed)",45.21%,19.84%,26.7%
CC(C)[C@@H]1NC(=O)CNC(=O)[C@H](CC(N)=O)NC(=O)[C@H](CCCNC(=N)N)NC(=O)[C@H](Cc2ccc(O)cc2)NC(=O)[C@H](C(C)C)NC(=O)[C@@H](NC(=O)[C@@H](NC(=O)[C@H](CC(N)=O)NC(=O)[C@H](Cc2c[nH]c3ccccc23)NC(=O)[C@H](C)NC(=O)[C@H](Cc2ccccc2)NC(=O)CNC(=O)[C@H](CO)NC(=O)CNC(=O)CNC(=O)CNC(=O)CNC(=O)[C@H](CCCCN)NC(=O)[C@H](Cc2ccccc2)NC(=O)[C@H](Cc2ccccc2)NC(=O)[C@H](CO)NC(=O)[C@H](C)NC(=O)[C@H](CCCNC(=N)N)NC(=O)[C@@H](NC(=O)[C@H](CCCCN)NC(=O)[C@H](Cc2c[nH]c3ccccc23)NC(=O)[C@H](CCCNC(=N)N)NC(=O)CNC(=O)[C@H](CCC(N)=O)NC(=O)[C@@H](NC(=O)[C@@H](N)CCCNC(=N)N)C(C)C)C(C)C)C(C)C)CSSC[C@@H](C(=O)N[C@@H](Cc2c[nH]cn2)C(=O)N[C@@H](CCCNC(=N)N)C(=O)N[C@@H](CCCNC(=N)N)C(=O)N[C@@H](C)C(=O)N[C@@H](CC(N)=O)C(=O)O)NC(=O)[C@H](C(C)C)NC(=O)[C@H](CCCNC(=N)N)NC1=O [G6] (H-RVQGRWKVRASFFKGGGGSGFAWNVCVYRNGVRVCHRRAN-OH; disulfide 26-35),11.46%,3.06%,6.97%
H-RVQGRWKVRASFFKEAAAKEAAAKGFAWNVCVYRNGVRVCHRRAN-OH (disulfide 31-40) [A6],12.23%,3.76%,~ 7%
